# Test results from PMC6503114 (Frontiers in Cellular and Infection Microbiology, 2019).
# Assay: peptide made by a vendor (Fmoc solid-phase peptide synthesis)
# Details: whole synthesis, reverse phase analytical chromatography on DeltaPak 5 μm C18 100A (3.9 × 150 mm) column
substance,measurement,value
Protegrin 1,purity (crude or final not stated),99%
